Test results: article PMC10317984

Protein sequences, listed by entry. Tags and fused reporters are not part of them. Lines headed by an entry give the natural chain unless they say otherwise; changes in a name come on top.
UniProt C6S3C9: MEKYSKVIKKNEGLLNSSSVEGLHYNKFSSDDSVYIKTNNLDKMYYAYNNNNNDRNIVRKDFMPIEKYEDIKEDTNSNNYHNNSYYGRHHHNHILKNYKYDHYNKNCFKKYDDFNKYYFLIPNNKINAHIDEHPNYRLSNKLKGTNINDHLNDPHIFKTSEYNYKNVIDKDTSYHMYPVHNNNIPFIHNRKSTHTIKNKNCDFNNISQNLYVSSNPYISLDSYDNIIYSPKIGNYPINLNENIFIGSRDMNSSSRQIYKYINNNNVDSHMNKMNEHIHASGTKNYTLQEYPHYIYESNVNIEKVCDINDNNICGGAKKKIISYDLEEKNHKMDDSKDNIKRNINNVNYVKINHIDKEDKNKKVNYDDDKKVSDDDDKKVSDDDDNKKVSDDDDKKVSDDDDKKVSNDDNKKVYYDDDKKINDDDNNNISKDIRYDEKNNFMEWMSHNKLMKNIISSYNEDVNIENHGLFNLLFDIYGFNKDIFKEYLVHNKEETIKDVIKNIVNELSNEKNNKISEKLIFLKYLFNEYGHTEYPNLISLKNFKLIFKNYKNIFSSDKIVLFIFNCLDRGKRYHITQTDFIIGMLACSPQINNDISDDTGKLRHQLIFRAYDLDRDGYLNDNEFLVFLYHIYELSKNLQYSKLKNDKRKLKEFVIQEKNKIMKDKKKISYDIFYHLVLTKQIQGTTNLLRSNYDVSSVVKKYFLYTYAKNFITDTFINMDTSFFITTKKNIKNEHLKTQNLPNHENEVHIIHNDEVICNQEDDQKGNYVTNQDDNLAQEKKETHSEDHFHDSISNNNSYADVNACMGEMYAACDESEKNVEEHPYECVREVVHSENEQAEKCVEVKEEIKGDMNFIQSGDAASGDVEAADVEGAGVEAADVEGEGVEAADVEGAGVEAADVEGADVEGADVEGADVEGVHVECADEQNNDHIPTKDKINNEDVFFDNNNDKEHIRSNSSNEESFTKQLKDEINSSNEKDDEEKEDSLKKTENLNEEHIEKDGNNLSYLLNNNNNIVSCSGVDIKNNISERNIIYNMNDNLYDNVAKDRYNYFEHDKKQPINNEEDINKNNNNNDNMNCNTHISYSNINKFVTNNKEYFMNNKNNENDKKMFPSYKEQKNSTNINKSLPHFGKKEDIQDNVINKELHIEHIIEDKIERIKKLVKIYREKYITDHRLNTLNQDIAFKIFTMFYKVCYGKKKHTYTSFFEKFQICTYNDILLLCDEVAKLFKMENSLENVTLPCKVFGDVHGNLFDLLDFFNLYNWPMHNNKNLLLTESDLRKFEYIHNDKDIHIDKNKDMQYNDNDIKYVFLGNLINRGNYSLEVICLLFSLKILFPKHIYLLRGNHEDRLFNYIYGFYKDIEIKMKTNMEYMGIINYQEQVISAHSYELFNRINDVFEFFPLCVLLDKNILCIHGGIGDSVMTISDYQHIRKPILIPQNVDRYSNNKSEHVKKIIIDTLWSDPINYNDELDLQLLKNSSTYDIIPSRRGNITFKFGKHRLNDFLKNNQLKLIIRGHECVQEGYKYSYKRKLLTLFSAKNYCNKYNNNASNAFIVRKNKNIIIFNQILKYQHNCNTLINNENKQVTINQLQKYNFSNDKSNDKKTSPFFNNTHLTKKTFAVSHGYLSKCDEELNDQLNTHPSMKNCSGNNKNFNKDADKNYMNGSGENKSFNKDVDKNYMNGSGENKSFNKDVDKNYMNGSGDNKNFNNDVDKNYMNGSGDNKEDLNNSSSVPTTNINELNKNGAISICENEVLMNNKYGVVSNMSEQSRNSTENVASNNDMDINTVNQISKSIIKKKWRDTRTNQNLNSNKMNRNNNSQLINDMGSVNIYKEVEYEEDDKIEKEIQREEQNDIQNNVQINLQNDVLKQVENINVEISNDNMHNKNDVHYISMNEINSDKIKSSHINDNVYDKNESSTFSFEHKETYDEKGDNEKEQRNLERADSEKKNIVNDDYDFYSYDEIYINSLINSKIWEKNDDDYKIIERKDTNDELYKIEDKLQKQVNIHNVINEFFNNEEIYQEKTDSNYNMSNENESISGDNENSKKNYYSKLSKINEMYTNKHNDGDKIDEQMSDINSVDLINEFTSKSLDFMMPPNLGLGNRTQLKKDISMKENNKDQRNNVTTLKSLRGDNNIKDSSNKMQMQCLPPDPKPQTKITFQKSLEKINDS
UniProt A0A144A488: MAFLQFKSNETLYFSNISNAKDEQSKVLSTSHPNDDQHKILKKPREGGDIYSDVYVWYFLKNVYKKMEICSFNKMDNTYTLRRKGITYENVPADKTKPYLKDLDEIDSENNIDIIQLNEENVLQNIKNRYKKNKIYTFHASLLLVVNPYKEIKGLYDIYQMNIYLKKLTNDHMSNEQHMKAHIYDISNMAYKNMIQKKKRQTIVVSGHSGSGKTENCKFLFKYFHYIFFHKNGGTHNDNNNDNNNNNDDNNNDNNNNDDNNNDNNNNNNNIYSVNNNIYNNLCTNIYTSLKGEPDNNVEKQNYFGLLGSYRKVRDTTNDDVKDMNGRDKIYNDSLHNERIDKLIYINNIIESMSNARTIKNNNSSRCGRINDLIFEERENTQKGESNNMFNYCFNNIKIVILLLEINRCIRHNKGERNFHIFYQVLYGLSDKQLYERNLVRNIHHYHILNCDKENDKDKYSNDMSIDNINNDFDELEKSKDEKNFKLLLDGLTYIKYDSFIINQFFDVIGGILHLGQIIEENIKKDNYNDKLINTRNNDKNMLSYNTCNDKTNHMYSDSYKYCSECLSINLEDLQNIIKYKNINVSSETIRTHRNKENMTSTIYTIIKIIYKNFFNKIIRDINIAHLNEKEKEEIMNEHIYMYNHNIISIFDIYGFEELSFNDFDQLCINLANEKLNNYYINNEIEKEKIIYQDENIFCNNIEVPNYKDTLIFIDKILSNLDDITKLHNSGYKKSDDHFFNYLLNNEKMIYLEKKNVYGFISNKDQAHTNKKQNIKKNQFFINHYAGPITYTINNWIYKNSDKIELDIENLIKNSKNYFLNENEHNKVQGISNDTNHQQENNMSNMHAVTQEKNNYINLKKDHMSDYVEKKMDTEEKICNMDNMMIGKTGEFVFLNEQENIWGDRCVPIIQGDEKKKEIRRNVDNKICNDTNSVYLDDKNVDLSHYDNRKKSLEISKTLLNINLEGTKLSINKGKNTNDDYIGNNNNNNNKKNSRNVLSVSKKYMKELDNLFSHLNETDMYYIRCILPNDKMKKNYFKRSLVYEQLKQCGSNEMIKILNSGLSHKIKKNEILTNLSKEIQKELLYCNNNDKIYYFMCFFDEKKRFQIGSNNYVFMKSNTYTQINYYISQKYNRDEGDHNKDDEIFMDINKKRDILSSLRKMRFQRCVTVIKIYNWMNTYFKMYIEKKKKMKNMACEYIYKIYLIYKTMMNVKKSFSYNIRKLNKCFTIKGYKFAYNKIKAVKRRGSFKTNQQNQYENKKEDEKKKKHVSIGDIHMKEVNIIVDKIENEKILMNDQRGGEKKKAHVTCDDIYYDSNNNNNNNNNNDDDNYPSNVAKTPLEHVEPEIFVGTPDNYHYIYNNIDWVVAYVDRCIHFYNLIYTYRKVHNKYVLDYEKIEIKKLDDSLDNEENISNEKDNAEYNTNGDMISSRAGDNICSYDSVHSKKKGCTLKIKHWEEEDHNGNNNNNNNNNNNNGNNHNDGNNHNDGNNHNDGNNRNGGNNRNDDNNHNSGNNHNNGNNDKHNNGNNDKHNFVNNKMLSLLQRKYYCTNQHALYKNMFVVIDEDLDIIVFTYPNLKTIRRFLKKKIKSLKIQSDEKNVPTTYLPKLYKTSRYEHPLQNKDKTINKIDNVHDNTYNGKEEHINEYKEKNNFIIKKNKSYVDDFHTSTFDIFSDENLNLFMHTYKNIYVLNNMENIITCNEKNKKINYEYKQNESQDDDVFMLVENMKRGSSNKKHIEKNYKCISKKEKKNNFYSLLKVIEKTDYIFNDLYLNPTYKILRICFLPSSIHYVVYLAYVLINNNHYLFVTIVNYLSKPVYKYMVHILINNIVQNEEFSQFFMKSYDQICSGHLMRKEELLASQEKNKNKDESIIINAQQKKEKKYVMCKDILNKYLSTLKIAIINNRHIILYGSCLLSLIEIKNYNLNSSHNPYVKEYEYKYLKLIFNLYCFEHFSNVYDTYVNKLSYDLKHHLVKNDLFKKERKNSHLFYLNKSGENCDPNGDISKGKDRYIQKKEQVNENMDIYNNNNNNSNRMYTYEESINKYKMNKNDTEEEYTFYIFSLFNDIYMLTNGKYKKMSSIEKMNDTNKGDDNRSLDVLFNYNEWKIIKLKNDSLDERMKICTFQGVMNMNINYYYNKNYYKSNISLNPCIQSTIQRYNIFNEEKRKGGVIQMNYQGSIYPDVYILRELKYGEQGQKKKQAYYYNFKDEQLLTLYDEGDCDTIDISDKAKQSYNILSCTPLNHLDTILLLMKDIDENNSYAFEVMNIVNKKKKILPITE

How the values were obtained:
[1] = molecular target: PfPPP8-smV5 (P. falciparum 3D7) (UniProt C6S3C9); assay: affinity purification with mass spectrometry; synchronised PfPPP8-smV5^Tet; PfCINCH-smMyc schizonts and parental 3D7 as control; lysed in RIPA buffer with protease inhibitors, sonicated; supernatant on magnetic anti-V5 and anti-Myc beads overnight at 4 °C; washed with RIPA and PBS; on-bead …; two biological replicates, consensus hits absent from the control
[2] = molecular target: PfCINCH-smMyc (P. falciparum 3D7); assay: as above

Molecule: PfMyoJ (from UniProt A0A144A488)
- binding [1]: binds

B1: PF3D7_0214700 (protein, UniProt O96227 1-301)
chain: MINTFQIRDFNKFPFSSNEQKIISHFTNEHNDKFNDNLSQLQIPQELKKNIITNNLHDEKVILTDNNMKEKCNHIDRDTITKEISIERLLHKIRNLENEKKFLLRFLENKKNIELEYKKALETQAAYVNSENKKSQFYENEWLNMKSLEYSLINSGKEPLRQSLEMLYDDSNINKLGGLTRNQEMFIIKLIEDHKNLNKERSIISKKYNEAVDANFQLYQQNEMLKAQNISLLEKNKDLVNEELDKKLNALNSSLIYVQKENIQLQDVLDQYSKLIKNIKDCPDMKAVNDELNKFANYLSI
- binding [2]: binds
- binding [1]: binds

These are yes or no findings as the source states them, for the method shown. Binding seen in cells or lysates may run through a third protein. Here binding means that the protein was enriched with, or labelled near, the bait; the list need not be complete.
